The values that follow come from publication PMC8165180.

Sequences of proteins named here, by UniProt entry; tags and fusion partners are left off.
UniProt Q16875: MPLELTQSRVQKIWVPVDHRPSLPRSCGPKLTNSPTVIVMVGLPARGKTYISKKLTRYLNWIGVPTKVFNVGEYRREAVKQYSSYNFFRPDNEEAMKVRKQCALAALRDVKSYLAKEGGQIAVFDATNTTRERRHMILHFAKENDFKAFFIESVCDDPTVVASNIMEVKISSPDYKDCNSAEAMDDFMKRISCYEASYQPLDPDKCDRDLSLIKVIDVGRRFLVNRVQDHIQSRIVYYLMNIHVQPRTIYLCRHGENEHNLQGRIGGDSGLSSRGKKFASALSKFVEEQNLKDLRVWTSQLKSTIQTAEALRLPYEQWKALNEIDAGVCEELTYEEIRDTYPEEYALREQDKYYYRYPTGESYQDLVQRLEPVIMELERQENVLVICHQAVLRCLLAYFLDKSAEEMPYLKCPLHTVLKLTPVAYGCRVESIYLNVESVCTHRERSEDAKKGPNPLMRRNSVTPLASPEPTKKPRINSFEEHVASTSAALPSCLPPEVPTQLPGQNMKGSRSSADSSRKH

Results are given in words; binding and its absence hold for the method and conditions named. Binding seen in cells or lysates may run through a third protein. These calls come from enrichment with a bait or labelling near it, and not all partners need be listed.

This assay deals with PFKFB3 of the immunoprecipitate analysed by mass spectrometry (UniProt Q16875). In words: affinity purification with mass spectrometry; protein samples from IP separated by SDS-PAGE, LC-ESIMS/MS on Q Exactive HF; cells and IP antibody not stated.

B1: KDM2A found by mass spectrometry of the immunoprecipitate (protein, UniProt Q9Y2K7 1-1162)
chain: MEPEEERIRYSQRLRGTMRRRYEDDGISDDEIEGKRTFDLEEKLHTNKYNANFVTFMEGKDFNVEYIQRGGLRDPLIFKNSDGLGIKMPDPDFTVNDVKMCVGSRRMVDVMDVNTQKGIEMTMAQWTRYYETPEEEREKLYNVISLEFSHTRLENMVQRPSTVDFIDWVDNMWPRHLKESQTESTNAILEMQYPKVQKYCLMSVRGCYTDFHVDFGGTSVWYHIHQGGKVFWLIPPTAHNLELYENWLLSGKQGDIFLGDRVSDCQRIELKQGYTFVIPSGWIHAVYTPTDTLVFGGNFLHSFNIPMQLKIYNIEDRTRVPNKFRYPFYYEMCWYVLERYVYCITNRSHLTKEFQKESLSMDLELNGLESGNGDEEAVDREPRRLSSRRSVLTSPVANGVNLDYDGLGKTCRSLPSLKKTLAGDSSSDCSRGSHNGQVWDPQCAPRKDRQVHLTHFELEGLRCLVDKLESLPLHKKCVPTGIEDEDALIADVKILLEELANSDPKLALTGVPIVQWPKRDKLKFPTRPKVRVPTIPITKPHTMKPAPRLTPVRPAAASPIVSGARRRRVRCRKCKACVQGECGVCHYCRDMKKFGGPGRMKQSCVLRQCLAPRLPHSVTCSLCGEVDQNEETQDFEKKLMECCICNEIVHPGCLQMDGEGLLNEELPNCWECPKCYQEDSSEKAQKRKMEESDEEAVQAKVLRPLRSCDEPLTPPPHSPTSMLQLIHDPVSPRGMVTRSSPGAGPSDHHSASRDERFKRRQLLRLQATERTMVREKENNPSGKKELSEVEKAKIRGSYLTVTLQRPTKELHGTSIVPKLQAITASSANLRHSPRVLVQHCPARTPQRGDEEGLGGEEEEEEEEEEEDDSAEEGGAARLNGRGSWAQDGDESWMQREVWMSVFRYLSRRELCECMRVCKTWYKWCCDKRLWTKIDLSRCKAIVPQALSGIIKRQPVSLDLSWTNISKKQLTWLVNRLPGLKDLLLAGCSWSAVSALSTSSCPLLRTLDLRWAVGIKDPQIRDLLTPPADKPGQDNRSKLRNMTDFRLAGLDITDATLRLIIRHMPLLSRLDLSHCSHLTDQSSNLLTAVGSSTRYSLTELNMAGCNKLTDQTLIYLRRIANVTLIDLRGCKQITRKACEHFISDLSINSLYCLSDEKLIQKIS
With B1, the binding result was “binds”.
